Reference: publication PMC12279241
Results are given in words; binding and its absence hold for the method and conditions named. In cells and extracts the contact can be indirect. These calls come from enrichment with a bait or labelling near it, and not all partners need be listed.

Target: T1, TMCO3 (IP experiments whose cells are not stated) (UniProt Q6UWJ1)
T1 sequence: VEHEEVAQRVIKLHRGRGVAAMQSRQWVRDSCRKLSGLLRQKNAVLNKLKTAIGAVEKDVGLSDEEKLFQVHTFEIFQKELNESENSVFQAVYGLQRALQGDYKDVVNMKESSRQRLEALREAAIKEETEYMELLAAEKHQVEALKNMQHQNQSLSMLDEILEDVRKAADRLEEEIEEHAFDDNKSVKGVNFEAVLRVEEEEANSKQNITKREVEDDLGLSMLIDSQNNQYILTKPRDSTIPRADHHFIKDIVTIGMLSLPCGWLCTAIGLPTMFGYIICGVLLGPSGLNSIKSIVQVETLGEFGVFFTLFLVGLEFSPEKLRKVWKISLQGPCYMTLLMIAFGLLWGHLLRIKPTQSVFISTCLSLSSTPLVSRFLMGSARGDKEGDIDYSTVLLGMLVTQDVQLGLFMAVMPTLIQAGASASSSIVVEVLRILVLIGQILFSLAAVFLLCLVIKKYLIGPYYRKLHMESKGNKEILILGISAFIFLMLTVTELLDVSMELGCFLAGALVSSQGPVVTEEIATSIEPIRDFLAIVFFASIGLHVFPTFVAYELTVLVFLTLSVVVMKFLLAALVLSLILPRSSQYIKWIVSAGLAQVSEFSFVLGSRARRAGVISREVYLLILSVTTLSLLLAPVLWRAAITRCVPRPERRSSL
Assay: affinity purification with mass spectrometry; immunoprecipitation (IP) of TMCO3 followed by MS; cells not given

AKT (IP experiments whose cells are not stated)
binding: binds
